These are yes or no findings as the source states them, for the method shown. Binding seen in cells or lysates may run through a third protein. Some binding calls cover weakened binding; strength is not graded here.
Biological target: T1, LATS1 (human (endogenous in HCC cells)) (UniProt O95835)
T1 sequence: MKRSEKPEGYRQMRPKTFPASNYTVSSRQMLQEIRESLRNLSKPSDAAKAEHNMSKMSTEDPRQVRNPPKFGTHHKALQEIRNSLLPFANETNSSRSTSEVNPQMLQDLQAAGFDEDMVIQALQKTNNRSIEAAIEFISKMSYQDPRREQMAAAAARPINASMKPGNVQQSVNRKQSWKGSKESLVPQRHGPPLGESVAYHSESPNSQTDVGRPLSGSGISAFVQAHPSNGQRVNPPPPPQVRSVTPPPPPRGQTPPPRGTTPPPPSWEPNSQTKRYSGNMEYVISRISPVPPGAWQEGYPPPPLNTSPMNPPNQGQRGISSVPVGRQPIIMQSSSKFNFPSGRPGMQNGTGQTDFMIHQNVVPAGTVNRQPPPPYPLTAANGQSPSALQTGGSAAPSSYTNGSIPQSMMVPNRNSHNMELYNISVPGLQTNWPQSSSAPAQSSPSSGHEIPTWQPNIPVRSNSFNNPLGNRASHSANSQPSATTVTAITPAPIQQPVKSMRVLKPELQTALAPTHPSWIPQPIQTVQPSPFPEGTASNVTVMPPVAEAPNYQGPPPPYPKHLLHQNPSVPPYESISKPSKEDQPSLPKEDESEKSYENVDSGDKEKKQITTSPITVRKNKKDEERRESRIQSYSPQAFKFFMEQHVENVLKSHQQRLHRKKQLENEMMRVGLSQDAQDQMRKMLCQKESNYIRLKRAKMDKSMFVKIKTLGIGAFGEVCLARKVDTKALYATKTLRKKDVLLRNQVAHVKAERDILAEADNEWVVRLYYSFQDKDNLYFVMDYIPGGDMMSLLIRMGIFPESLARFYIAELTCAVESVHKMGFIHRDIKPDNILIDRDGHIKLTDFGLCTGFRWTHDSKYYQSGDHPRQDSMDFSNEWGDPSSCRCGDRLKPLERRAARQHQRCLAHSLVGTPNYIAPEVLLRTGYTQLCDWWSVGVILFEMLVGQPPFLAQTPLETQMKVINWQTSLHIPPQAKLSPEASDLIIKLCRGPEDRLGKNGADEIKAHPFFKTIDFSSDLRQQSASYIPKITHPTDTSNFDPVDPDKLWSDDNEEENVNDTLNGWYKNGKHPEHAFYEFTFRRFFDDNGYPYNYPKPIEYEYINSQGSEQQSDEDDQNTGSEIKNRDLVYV
Experiment: co-IP; endogenous proteins in HCC cells; lysates immunoprecipitated with anti-LATS1 or anti-CUL4A antibody on protein A/G beads overnight at 4 °C, eluted proteins detected by Western blotting

By UniProt entry, the sequences of proteins in these tests, tags left out.
UniProt Q13619: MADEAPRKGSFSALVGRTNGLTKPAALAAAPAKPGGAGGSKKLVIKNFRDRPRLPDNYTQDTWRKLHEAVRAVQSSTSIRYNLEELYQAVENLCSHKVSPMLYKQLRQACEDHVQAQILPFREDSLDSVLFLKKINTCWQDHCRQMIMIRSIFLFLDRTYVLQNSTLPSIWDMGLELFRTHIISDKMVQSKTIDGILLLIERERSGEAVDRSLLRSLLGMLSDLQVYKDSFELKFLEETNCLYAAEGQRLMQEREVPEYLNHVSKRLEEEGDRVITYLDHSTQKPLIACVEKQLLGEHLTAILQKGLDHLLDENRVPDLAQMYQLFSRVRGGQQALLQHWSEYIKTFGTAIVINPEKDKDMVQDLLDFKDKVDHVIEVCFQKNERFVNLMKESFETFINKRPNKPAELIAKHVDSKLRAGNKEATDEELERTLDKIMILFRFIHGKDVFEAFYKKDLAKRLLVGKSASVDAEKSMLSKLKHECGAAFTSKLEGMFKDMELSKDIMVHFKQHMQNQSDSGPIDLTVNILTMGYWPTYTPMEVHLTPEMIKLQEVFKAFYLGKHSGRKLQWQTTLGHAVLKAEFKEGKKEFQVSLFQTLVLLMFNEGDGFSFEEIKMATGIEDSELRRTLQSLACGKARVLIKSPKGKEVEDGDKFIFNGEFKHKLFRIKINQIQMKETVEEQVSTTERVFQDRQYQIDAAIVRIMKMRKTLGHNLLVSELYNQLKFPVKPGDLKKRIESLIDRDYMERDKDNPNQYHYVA

binding: binds
Substance: CUL4A (from UniProt Q13619 1-759)
